According to publication PMC11315898:
Numbering of substitutions follows the chain as printed. Names and notes keep the numbering of the source. No constants are given. Whether binding was seen depends on the method and setting. Tags and fused reporters may be left off the sequences shown.

B1: His-SUMO-Mis18α_(188-233 I201A/L205A) (domain or fragment, UniProt Q9NYP9 188-233)
chain: EDKELFNLESRVEAEKSATQMEDVLKALQMKLWEAESKLSFATCKS
B2: His-SUMO-Mis18α_(188-233 L212A/L215A/L219A) (domain or fragment, UniProt Q9NYP9 188-233)
chain: B1 chain with A14I, A18L, L25A, L28A, L32A

Columns and labels:
[1] = target: His-SUMO-Mis18α_(188-233 I201A/L205A) (human) (UniProt Q9NYP9); experiment: SEC-MALS; Superdex 75 increase 10/300 GL, 50 mM HEPES pH 8.0, 150 mM NaCl, 1 mM TCEP, 22 °C; 100 µl of 2–6 mg/ml injected; both purified
[2] = target: His-SUMO-Mis18α_(188-233 L212A/L215A/L219A) (human) (UniProt Q9NYP9); experiment: as above

Row | Binder | binding [1] | binding [2]
1 | B1 | no binding (tested: 100 µl of 2–6 mg/ml injected) | 
2 | B2 |  | no binding (tested: 100 µl of 2–6 mg/ml injected)
